Results published in article PMC11176080.
Read-outs that look alike come from different tables or passages of the source. No constants are given. Whether binding was seen depends on the method and setting. Binding seen in cells or lysates may run through a third protein. Some results given as binding are weak or reduced against the parent protein; the word gives no strength.

The chains behind the UniProt entries cited, without tags or fusion partners.
UniProt Q91ZW3: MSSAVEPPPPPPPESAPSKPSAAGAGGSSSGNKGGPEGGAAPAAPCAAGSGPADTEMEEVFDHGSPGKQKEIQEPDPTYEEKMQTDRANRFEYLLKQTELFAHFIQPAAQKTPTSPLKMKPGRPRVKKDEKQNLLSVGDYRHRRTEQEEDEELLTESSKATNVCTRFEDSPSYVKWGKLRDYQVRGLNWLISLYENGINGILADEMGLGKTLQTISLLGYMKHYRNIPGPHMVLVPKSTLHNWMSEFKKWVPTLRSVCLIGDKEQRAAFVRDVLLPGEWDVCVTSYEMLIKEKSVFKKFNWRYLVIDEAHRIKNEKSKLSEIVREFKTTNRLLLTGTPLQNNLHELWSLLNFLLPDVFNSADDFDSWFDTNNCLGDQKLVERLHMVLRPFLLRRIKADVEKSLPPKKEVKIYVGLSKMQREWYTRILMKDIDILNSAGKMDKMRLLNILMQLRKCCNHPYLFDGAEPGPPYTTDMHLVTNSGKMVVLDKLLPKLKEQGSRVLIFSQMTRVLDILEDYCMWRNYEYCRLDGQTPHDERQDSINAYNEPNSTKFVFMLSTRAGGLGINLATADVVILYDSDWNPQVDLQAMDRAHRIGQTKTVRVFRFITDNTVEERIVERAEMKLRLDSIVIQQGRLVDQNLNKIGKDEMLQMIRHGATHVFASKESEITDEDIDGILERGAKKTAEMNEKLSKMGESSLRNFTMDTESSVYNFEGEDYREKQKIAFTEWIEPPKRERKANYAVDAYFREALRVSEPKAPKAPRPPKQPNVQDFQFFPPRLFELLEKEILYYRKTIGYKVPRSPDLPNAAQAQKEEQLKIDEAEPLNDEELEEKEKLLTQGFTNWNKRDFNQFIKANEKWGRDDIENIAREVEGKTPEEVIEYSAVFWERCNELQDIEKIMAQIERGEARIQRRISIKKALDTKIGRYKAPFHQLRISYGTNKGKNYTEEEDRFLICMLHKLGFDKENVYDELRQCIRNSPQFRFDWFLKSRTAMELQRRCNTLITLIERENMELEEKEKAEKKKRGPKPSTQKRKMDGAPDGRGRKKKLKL
UniProt Q91YE5: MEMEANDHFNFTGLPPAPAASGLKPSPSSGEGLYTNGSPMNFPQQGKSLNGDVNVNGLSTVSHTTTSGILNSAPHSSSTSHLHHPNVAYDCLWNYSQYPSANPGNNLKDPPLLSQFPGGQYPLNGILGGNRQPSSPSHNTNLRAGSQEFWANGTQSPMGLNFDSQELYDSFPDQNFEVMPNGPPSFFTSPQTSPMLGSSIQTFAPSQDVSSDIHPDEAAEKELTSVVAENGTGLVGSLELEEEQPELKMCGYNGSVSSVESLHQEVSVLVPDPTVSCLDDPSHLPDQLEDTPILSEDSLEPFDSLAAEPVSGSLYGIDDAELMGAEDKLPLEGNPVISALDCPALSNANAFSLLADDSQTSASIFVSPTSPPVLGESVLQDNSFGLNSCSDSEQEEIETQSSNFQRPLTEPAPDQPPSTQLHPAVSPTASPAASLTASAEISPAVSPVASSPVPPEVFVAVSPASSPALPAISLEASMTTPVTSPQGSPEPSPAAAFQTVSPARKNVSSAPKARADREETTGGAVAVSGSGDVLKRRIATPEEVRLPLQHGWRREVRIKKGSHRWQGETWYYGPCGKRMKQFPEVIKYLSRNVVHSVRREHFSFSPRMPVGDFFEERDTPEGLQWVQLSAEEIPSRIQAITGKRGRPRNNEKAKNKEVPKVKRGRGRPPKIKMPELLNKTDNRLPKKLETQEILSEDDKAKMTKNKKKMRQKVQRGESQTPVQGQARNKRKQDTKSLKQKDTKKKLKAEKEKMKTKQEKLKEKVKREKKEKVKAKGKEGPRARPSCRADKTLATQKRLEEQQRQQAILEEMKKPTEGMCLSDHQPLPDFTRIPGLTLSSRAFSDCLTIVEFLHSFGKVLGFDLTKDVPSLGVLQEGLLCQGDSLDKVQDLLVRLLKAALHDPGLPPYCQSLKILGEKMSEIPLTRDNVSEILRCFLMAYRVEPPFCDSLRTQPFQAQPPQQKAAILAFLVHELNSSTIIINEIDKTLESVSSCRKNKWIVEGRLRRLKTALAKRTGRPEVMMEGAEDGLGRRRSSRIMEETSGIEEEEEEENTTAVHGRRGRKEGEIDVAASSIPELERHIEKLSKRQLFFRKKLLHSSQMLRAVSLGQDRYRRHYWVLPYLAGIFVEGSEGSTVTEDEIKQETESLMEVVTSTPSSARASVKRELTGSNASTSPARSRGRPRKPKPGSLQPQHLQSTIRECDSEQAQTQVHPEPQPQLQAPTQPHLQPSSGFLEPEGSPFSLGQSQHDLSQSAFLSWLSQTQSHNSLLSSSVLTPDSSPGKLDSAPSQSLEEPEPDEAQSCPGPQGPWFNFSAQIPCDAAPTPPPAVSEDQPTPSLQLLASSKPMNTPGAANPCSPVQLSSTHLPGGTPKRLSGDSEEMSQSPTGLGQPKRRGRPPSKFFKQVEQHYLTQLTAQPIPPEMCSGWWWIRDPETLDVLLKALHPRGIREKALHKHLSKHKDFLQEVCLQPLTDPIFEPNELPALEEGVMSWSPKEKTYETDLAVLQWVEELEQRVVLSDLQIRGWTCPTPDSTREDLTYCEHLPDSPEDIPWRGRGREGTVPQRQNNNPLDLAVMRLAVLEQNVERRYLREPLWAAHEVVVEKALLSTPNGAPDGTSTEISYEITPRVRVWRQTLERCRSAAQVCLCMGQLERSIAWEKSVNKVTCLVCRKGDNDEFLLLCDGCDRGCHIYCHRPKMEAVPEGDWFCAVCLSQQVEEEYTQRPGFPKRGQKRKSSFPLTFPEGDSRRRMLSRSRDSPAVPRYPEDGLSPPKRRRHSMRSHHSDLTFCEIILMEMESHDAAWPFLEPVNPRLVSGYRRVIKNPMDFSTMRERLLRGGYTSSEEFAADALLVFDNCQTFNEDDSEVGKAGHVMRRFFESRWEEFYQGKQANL
UniProt E9Q2Z1: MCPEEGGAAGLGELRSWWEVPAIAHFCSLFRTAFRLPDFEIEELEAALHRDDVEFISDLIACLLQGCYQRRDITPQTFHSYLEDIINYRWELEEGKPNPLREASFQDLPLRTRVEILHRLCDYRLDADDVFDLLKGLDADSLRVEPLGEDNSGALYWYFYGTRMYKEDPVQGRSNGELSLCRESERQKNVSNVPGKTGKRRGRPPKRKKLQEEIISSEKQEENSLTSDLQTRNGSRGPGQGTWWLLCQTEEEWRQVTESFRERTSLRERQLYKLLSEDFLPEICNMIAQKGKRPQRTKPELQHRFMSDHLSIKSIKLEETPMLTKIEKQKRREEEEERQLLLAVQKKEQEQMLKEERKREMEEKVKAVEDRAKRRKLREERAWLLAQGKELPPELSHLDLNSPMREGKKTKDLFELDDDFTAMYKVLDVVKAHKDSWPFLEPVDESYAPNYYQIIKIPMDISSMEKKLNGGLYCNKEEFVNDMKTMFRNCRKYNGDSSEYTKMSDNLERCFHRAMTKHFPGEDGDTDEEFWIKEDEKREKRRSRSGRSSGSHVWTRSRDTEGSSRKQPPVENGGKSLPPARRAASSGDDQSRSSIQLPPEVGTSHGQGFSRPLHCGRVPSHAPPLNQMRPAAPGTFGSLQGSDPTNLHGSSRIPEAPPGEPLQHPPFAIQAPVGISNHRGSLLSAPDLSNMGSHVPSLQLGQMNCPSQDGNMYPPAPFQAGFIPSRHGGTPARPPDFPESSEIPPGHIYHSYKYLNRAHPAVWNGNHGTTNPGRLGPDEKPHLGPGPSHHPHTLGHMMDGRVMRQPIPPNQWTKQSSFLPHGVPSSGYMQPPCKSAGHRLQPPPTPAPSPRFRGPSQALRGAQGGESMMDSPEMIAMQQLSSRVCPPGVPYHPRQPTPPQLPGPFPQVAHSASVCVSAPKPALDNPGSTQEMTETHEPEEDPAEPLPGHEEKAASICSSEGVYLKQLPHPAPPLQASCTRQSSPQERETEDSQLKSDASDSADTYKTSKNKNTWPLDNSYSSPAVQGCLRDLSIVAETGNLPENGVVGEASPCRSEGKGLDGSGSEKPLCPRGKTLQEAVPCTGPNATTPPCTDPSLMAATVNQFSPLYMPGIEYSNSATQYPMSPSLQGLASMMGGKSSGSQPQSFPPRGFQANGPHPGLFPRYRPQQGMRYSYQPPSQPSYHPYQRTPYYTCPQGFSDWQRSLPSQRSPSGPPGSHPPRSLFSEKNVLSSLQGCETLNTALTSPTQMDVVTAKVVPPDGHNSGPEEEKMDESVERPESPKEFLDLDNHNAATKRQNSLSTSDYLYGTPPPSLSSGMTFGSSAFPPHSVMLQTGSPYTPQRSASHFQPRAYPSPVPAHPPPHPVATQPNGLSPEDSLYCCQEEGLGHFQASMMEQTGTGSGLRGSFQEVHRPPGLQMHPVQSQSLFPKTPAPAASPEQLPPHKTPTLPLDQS
UniProt O88379: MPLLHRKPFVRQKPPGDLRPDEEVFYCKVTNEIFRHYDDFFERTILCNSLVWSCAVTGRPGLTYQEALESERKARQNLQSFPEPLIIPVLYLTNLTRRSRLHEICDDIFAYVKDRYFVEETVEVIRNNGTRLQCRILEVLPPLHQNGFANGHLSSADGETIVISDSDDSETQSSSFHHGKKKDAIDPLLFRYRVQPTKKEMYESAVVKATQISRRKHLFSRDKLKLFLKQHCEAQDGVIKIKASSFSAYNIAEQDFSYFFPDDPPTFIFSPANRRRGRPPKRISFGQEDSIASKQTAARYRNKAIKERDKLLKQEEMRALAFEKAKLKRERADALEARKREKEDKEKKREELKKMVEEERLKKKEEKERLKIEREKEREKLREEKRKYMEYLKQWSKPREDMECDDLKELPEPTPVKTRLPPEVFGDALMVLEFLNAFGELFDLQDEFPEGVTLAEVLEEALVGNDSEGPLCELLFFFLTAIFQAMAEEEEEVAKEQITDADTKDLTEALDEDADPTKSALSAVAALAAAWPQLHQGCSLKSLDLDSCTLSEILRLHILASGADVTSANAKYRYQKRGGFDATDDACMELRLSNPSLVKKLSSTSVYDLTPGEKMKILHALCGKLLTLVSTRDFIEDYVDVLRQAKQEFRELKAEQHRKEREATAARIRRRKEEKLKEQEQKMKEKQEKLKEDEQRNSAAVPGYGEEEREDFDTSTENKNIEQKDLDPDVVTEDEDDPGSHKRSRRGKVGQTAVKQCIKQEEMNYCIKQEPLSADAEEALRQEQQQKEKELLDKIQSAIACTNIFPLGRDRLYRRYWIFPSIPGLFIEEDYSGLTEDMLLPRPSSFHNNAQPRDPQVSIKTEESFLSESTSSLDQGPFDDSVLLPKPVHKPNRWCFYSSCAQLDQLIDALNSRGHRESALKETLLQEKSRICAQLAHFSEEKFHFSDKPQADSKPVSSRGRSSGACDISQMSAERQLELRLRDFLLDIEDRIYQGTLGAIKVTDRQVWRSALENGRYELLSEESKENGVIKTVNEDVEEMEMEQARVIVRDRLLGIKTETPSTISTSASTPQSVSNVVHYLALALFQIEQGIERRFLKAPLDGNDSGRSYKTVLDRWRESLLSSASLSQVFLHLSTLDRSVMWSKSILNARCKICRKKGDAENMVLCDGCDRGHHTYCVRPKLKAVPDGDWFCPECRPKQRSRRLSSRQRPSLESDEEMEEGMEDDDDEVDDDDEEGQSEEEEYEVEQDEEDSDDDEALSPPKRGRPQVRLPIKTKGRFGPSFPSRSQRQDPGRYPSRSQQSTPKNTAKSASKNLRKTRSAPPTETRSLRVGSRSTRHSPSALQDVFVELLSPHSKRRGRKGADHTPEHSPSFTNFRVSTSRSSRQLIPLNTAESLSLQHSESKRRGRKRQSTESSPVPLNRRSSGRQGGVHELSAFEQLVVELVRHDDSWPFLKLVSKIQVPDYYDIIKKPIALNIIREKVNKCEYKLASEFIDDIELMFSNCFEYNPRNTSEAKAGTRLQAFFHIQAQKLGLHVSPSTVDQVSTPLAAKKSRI

Assays:
[1] = molecular target: SNF2H (SMARCA5) (mouse (endogenous in mESCs)) (UniProt Q91ZW3); assay: co-IP; anti-SNF2H antibody on protein G Dynabeads from mESC nuclear extracts (RIPA buffer, sonicated, Benzonase), 4 °C overnight; western blot against ISWI subunits; WT and ISWI subunit deletion lines
[2] = molecular target: SNF2H (SMARCA5) (mouse (endogenous in mESCs)) (UniProt Q91ZW3); assay: as above; remark: listed apart in the source

Molecule | binding [1] | binding [2]
TIP5 (BAZ2A) (from UniProt Q91YE5 1-1889) | binds | –
CECR2 (from UniProt E9Q2Z1 1-1453) | binds | –
ACF1 (BAZ1A) (from UniProt O88379 1-1555) | binds | –
WSTF (BAZ1B) (protein, UniProt Q9Z277 1-1479) MAPLLGRKPFPLVKPLPGEEPLFTIPHTQEAFRTREEYEARLERYSERIWTCKSTGSSQLTHKEAWEEEQEVAELLKEEFPNWYEKLVLEMVHHNTASLEKLVDSAWLEIMTKYAVGEECDFEVGKEKMLKVKIVKIHPLEKVDEEAVEKKSDGACDSPSSDKENSSQMAQDLQKKETVVKEDEGRRESINDRARRSPRKLPTSLKKGERKWAPPKFLPHKYDVKLQNEDKIISNVPADSLIRTERPPNKEILRYFIRHNALRAGTGENAPWVVEDELVKKYSLPSKFSDFLLDPYKYMTLNPSTKRRNTGSPDRKPSKKPKRDSSSLSSPLNPKLWCHVHLEKSLNGPPLKVKNSKNSKSPEEHLEGVMKIMSPNNNKLHSFHIPKKGPAAKKPGKHSDKPLKAKGRGKGILNGQKSTGNSKSPSKCVKTPKTKMKQMTLLDMAKGTQKMTRTPRSSGGVPRSSGKPHKHLPPAALHLIAYYKENKDKEDKKSALSCVISKTARLLSNEDRARLPEELRALVQKRYELLEHKKRWASMSEEQRKEYLKKKRQELKERLREKAKERREREMLERLEKQKRFEDQELGGRNLPAFRLVDTPEGLPNTLFGDVALVVEFLSCYSGLLLPDAQYPITAVSLMEALSADKGGFLYLNRVLVILLQTLLQDEIAEDYGELGMKLSEIPLTLHSVSELVRLCLRRCDVQEDSEGSETDDNKDSTPFEDNEVQDEFLEKLETSEFFELTSEEKLRILTALCHRILMTYSVQDHMETRQQVSAELWKERLAVLKEENDKKRAEKQKRKEMEARNKENGKEENVLGKVDRKKEIVKIEQQVEVEADDMISAVKSRRLLSMQAKRKREIQERETKVRLEREAEEERMRKHKAAAEKAFQEGIAKAKLVLRRTPIGTDRNHNRYWLFSNEVPGLFIEKGWVHNSIDYRFKHHRKDHSNLPDDDYCPRSKKANLGKNASVNAHHGPALEAVETTVPKQGQNLWFLCDSQKELDELLSCLHPQGIRESQLKERLEKRYQEITHSIYLARKPNLGLKSCDGNQELLNFLRSDLIEVATRLQKGGLGYMEGTSEFEARVISLEKLKDFGECVIALQASVIKKFLQGFMAPKQKKRKLQSEDSTKSEEVDEEKKMVEEAKVASALEKWKTAIREAQTFSRMHVLLGMLDACIKWDMSAENARCKVCRKKGEDDKLILCDECNKAFHLFCLRPALYEVPDGEWQCPACQPPTARRNSRGRNYTEESTSEGSEGDESGEEEEEEEEEEEEEEDYEVAGLRLRPRKTIRGKQSVIPAARPGRPPGKKSHPARRSRPKDDPEVDDLVLQTKRISRRQSLELQKCEDILHKLVKYRFSWPFREPVTRDEAEDYYDVIEHPMDFQTIQNKCSCGNYRSVQEFLTDMKQVFANAELYNCRGSHVLSCMEKTEQCLLALLQKHLPGHPYVRRKRRKFPDRLADDEGDSDSESVGQSRGRRQKK | – | binds
RSF1 (protein, UniProt E9PWW9 1-1441) MAAAAAAAAAAAAAAMAPPGCPGSCPNFAVVCSFLERYGPLLDLPELPFPELERVLQAPPPDIGNGEVPKELVELHLKLMRKIGKSVTADRWEKYLIKICQEFNSTWAWEMEKKGYLEMSVECKLALLKYLCECQFDDNLKFKNIINEEDADTMRLQPIGRDKDGLMYWYQLDQDHNVRMYIEEQDDQDGSSWKCIVRNRNELAETLALLKAQIDPVLLKNSSQQEDSSRESPTLEDEETKKDEETPKQEASKENEKTGADERSVDSGKCSAASALEEPAVKTEKADEKELAKLPVIVKLEKPLPETEEKKIIREESDSFKENVKPIKVEAKECRADPKDLKGSLERLGSQEPERADFGSNIKSQDIIEKSTEETEKLKNDQQAKIPLKKREIKLSDDFDSPVKGPLCKSATPTKEVLKDDIKQEEETCKRVSTISALSHEGKQLVNGEINDDKVIPNFKTEQMEIQLCDTKEDSASIPAKDGNACMEGNGTECLNSVITSTKTSELEKEAPLGKGIDSSVPDIESLSQKARLEEPGLLNMDMPLEPSEKATDLSLKPTLSATEPCSTKVEEKAPRSKSENHTPGIECLERVEKAKKTSIDKDIQKLSPIPEEVVRGALESEKSGPCEVAETPLPLSMAGAKEKQTSEKKDVDCSRGSSESQSLENASPEILKEDSESSREEVAKLDNAQTSGMEDTSETKGSVQKNKFKYKLVSERNSTASENTEITSERKKEGIKLTIRISSRKKKPDCPPQTVDSESKEEKAGKEEEKASVGRTLRRSPRISRPTAKVAEIRVQKADKRRADGEDGVEGEPASLQTADKKDHLKKAEKDTNSKASKVKPKGKVRWTGSRTRGRWKYSSNDESEGSESDKSSAALEEEEGKEGEEAVLPDDDEPCKKCGLPNHPELILLCDSCDSGYHTACLRPPLMIIPDGEWFCPPCQHKLLCEKLEEQLQDLDVALKKKERAERRKERLVYVGISIENIIPPQEPEFSEEQEEKKKDAKKSKANALERRSTRTRKCISYRFDEFDEAIDEAIEDDIKEADGGGVGRGKDISTITGHRGKDISTILDEERKENKRPQRAAAARRKKRRRLNDLDSDSNLDEEESEDEFKISDGSQDEFVVSDENPDESEEEPPSNEDSDTDFCSRRLRRHPSRPMRQSRRLRRKTPKKKYSDDDEEEEESEENSRDSESDFSDDFSDDFVETRRRRSRRNQKRQINYKEDSESDGSQKSLRRGKEIRRVHKRRLSSSESEESFMSKNSEDDELTKESKRSVRKRGRSTDDYSEADEDDEEEGKPSRKRLHRIETDEESCDNAHGDADQPARDSQPSALPSEQESSKKPYRIESDEEEDFENKVGSPLDYSLVDLPSTNGQSPGKAIENLMGKATEKSQTPKDNGTASASLAPNGTSGGQEVGAPEEDEDELLRVTDLVDYVCNSEQL | – | binds
